According to patent publication US10047050B2, “3,4-di-substituted pyridine compound, methods of using and compositions comprising the same” (ARDEA BIOSCIENCES, INC., priority 2011, dated 2018):
“And” between values parts separate entries of the source, which are not always exact repeats. Equal values may be shown once. Further values from the same series stand in other lists.

Test system: serum uric acid
Assay: Single-dose Phase I clinical trial, serum uric acid (sUA) 0-72 hours post-dose
Assay type: in vivo, human
Conditions: individual subjects 3-8
Procedure: A Phase 1, Randomized, Double-Blind, Placebo-Controlled Study to Evaluate Safety, Tolerability, Pharmacokinetics and Preliminary Food Effect of Single Doses of a URAT1 Inhibitor, in Healthy Adult Male Volunteers.
To assess safety, tolerability, pharmacokinetics and uricosuric effects after oral administration as single doses of a tablet formulation and the effect of food on bioavailability.
Subjects receive a single, oral dose of active or placebo, at the following doses:
Group 4: 20 mg (fasted) [sentinel dosing];
48 subjects in 6 dose groups, 8 subjects/group, are randomized 3:1 to receive active (6/group) or placebo (2/group). All study procedures are the same regardless of whether subject receives active or placebo. The total duration of subject participation, including screening period, is ˜2-4 weeks, and the total volume of blood collected from each subject during the entire study <500 mL, (less than typically collected during a volunteer blood donation).
5 mg and 20 mg, active and placebo, tablets packaged in 35 count HDPE bottles, stored at controlled room temperature (15-30° C.). Placebo tablets are designed to match the active tablets—identical size, form, taste, and color, and containing the same excipients. 2 mg was dosed as an oral solution.
Subjects dosed on the morning of Day 1 with ˜240 mL of room temp water.
Fasted: subjects are dosed after overnight fast >10 hours and remain fasted until >4 hours post-dose.
Fed: subjects fast overnight for >10 hours, then are dosed 30 mins after completing standard moderate fat breakfast (no high fructose corn syrup).
Serum samples are collected at:
PD samples are frozen (−20° C.) and stored; all samples from a given subject assayed in a single analytical run.

[1] = Group 3, 5 mg single oral dose, fed, 12 h post-dose
[2] = Group 3, 5 mg single oral dose, fed, 24 h post-dose
[3] = Group 3, 5 mg single oral dose, fed, 30 h post-dose
[4] = Group 3, 5 mg single oral dose, fed, 36 h post-dose
[5] = Group 4, 20 mg single oral dose, fasted, 0 h (baseline)
[6] = Group 4, 20 mg single oral dose, fasted, 6 h post-dose
[7] = Group 4, 20 mg single oral dose, fasted, 12 h post-dose
[8] = Group 4, 20 mg single oral dose, fasted, 24 h post-dose
[9] = Group 4, 20 mg single oral dose, fasted, 30 h post-dose

`CC(C)(Sc1ccncc1-c1ccc(C#N)c2ccccc12)C(=O)O` [2-((3-(4-cyanonaphthalen-1-yl)pyridin-4-yl)thio)-2-methylpropanoic acid] was tested, and the “Absolute sUA concentration” value (Group 1, 2 mg single oral dose, fasted, 0 h (baseline)) was 7.4 mg/dL and 7.3 mg/dL and 6.6 mg/dL and 6.3 mg/dL and 6.2 mg/dL and 5.1 mg/dL, the “Absolute sUA concentration” value (Group 1, 2 mg single oral dose, fasted, 6 h post-dose) was 6.6 mg/dL (2×) and 6.0 mg/dL and 5.9 mg/dL and 5.1 mg/dL and 4.7 mg/dL and the “Absolute sUA concentration” value (Group 1, 2 mg single oral dose, fasted, 12 h post-dose) was 6.4 mg/dL and 6.3 mg/dL and 5.6 mg/dL and 5.5 mg/dL and 4.9 mg/dL and 4.2 mg/dL. For the same molecule, the “Absolute sUA concentration” value (Group 1, 2 mg single oral dose, fasted, 24 h post-dose) was 6.8 mg/dL and 6.4 mg/dL and 5.9 mg/dL and 6.2 mg/dL and 5.7 mg/dL and 4.7 mg/dL, the “Absolute sUA concentration” value (Group 1, 2 mg single oral dose, fasted, 30 h post-dose) was 6.5 mg/dL and 6.3 mg/dL and 5.6 mg/dL and 5.7 mg/dL and 5.3 mg/dL and 4.3 mg/dL and the “Absolute sUA concentration” value (Group 1, 2 mg single oral dose, fasted, 36 h post-dose) was 6.3 mg/dL and 6.1 mg/dL and 5.2 mg/dL and 5.3 mg/dL and 4.8 mg/dL and 4.0 mg/dL. The “Absolute sUA concentration” value (Group 1, 2 mg single oral dose, fasted, 48 h post-dose) was 6.8 mg/dL and 6.4 mg/dL and 5.4 mg/dL and 5.8 mg/dL and 5.1 mg/dL and 4.3 mg/dL, the “Absolute sUA concentration” value (Group 1, 2 mg single oral dose, fasted, 54 h post-dose) was 6.5 mg/dL and 5.9 mg/dL and 5.1 mg/dL and 5.2 mg/dL and 4.8 mg/dL and 4.0 mg/dL and the “Absolute sUA concentration” value (Group 1, 2 mg single oral dose, fasted, 60 h post-dose) was 6.6 mg/dL and 5.9 mg/dL and 5.0 mg/dL and 4.9 mg/dL and 4.6 mg/dL and 3.8 mg/dL. For the same molecule, the “Absolute sUA concentration” value (Group 1, 2 mg single oral dose, fasted, 72 h post-dose) was 6.5 mg/dL and 6.1 mg/dL and 5.3 mg/dL and 5.8 mg/dL and 5.0 mg/dL and 4.2 mg/dL, the “Absolute sUA concentration” value (Group 2, 5 mg single oral dose, fasted, 0 h (baseline)) was 7.4 mg/dL and 7.2 mg/dL and 6.3 mg/dL and 6.1 mg/dL (2×) and 5.9 mg/dL and the “Absolute sUA concentration” value (Group 2, 5 mg single oral dose, fasted, 6 h post-dose) was 5.6 mg/dL and 6.2 mg/dL and 5.4 mg/dL and 5.3 mg/dL and 4.4 mg/dL and 4.6 mg/dL. The “Absolute sUA concentration” value (Group 2, 5 mg single oral dose, fasted, 12 h post-dose) was 4.7 mg/dL and 6.0 mg/dL and 5.1 mg/dL and 5.3 mg/dL and 3.8 mg/dL and 4.0 mg/dL, the “Absolute sUA concentration” value (Group 2, 5 mg single oral dose, fasted, 24 h post-dose) was 5.5 mg/dL and 6.4 mg/dL and 5.6 mg/dL and 6.1 mg/dL and 4.5 mg/dL and 4.9 mg/dL and the “Absolute sUA concentration” value (Group 2, 5 mg single oral dose, fasted, 30 h post-dose) was 5.2 mg/dL (2×) and 6.0 mg/dL and 5.6 mg/dL and 3.9 mg/dL and 4.2 mg/dL. The “Absolute sUA concentration” value (Group 2, 5 mg single oral dose, fasted, 36 h post-dose) was 5.0 mg/dL and 5.5 mg/dL and 5.4 mg/dL and 5.2 mg/dL and 3.6 mg/dL and 4.0 mg/dL, the “Absolute sUA concentration” value (Group 2, 5 mg single oral dose, fasted, 48 h post-dose) was 5.4 mg/dL (2×) and 6.4 mg/dL and 5.7 mg/dL and 4.2 mg/dL and 4.7 mg/dL and the “Absolute sUA concentration” value (Group 2, 5 mg single oral dose, fasted, 54 h post-dose) was 5.1 mg/dL (2×) and 5.9 mg/dL and 5.3 mg/dL and 4.1 mg/dL and 4.2 mg/dL. The “Absolute sUA concentration” value (Group 2, 5 mg single oral dose, fasted, 60 h post-dose) was 5.3 mg/dL and 5.6 mg/dL and 5.0 mg/dL and 4.8 mg/dL and 4.1 mg/dL and 4.2 mg/dL, the “Absolute sUA concentration” value (Group 2, 5 mg single oral dose, fasted, 72 h post-dose) was 5.8 mg/dL and 6.1 mg/dL and 5.5 mg/dL and 5.3 mg/dL and 4.5 mg/dL (2×) and the “Absolute sUA concentration” value (Group 3, 5 mg single oral dose, fed, 0 h (baseline)) was 6.9 mg/dL and 6.6 mg/dL and 6.5 mg/dL and 6.0 mg/dL and 5.7 mg/dL and 4.0 mg/dL. The “Absolute sUA concentration” value (Group 3, 5 mg single oral dose, fed, 6 h post-dose) was 4.4 mg/dL (2×) and 4.5 mg/dL (2×) and 2.8 mg/dL, the “% sUA reduction (from baseline)” value [1] was −37.5% and the “Absolute sUA concentration” value [1] was 4.1 mg/dL (2×) and 4.6 mg/dL and 4.5 mg/dL and 4.4 mg/dL and 2.5 mg/dL. For the same molecule, the “% sUA reduction (from baseline)” value [2] was −27.5% and −22.7% and −20.0% and −8.3% and −7.0% and −17.5%, the “Absolute sUA concentration” value [2] was 5.0 mg/dL and 5.1 mg/dL and 5.2 mg/dL and 5.5 mg/dL and 5.3 mg/dL and 3.3 mg/dL and the “% sUA reduction (from baseline)” value [3] was −33.3% and −30.3% and −27.7% and −15.0% and −17.5% and −30.0%. The “Absolute sUA concentration” value [3] was 4.6 mg/dL (2×) and 4.7 mg/dL (2×) and 5.1 mg/dL and 2.8 mg/dL, the “% sUA reduction (from baseline)” value [4] was −37.7% and −33.3% and −29.2% and −18.3% and −21.1% and −35.0% and the “Absolute sUA concentration” value [4] was 4.3 mg/dL and 4.4 mg/dL and 4.6 mg/dL and 4.9 mg/dL and 4.5 mg/dL and 2.6 mg/dL. The “Absolute sUA concentration” value (Group 3, 5 mg single oral dose, fed, 48 h post-dose) was 4.7 mg/dL and 4.6 mg/dL (2×) and 5.0 mg/dL and 4.9 mg/dL and 2.9 mg/dL, the “Absolute sUA concentration” value (Group 3, 5 mg single oral dose, fed, 54 h post-dose) was 4.3 mg/dL and 3.5 mg/dL and 4.7 mg/dL and 3.7 mg/dL and 4.5 mg/dL and 2.7 mg/dL and the “Absolute sUA concentration” value (Group 3, 5 mg single oral dose, fed, 60 h post-dose) was 5.0 mg/dL and 4.7 mg/dL and 4.5 mg/dL and 4.8 mg/dL and 4.3 mg/dL and 2.6 mg/dL. For the same molecule, the “Absolute sUA concentration” value (Group 3, 5 mg single oral dose, fed, 72 h post-dose) was 5.9 mg/dL and 5.4 mg/dL and 5.2 mg/dL and 5.3 mg/dL and 4.8 mg/dL and 3.0 mg/dL, the “% sUA reduction (from baseline)” value [5] was 0% and the “Absolute sUA concentration” value [5] was 7.8 mg/dL and 7.6 mg/dL and 7.4 mg/dL and 6.2 mg/dL and 5.9 mg/dL and 5.6 mg/dL. For the same molecule, the “% sUA reduction (from baseline)” value [6] was −33.3% and −38.2% and −37.8% and −35.5% and −47.5% and −30.4%, the “Absolute sUA concentration” value [6] was 5.2 mg/dL and 4.7 mg/dL and 4.6 mg/dL and 4.0 mg/dL and 3.1 mg/dL and 3.9 mg/dL and the “% sUA reduction (from baseline)” value [7] was −42.3% and −43.4% and −16.2% and −48.4% and −52.5% and −44.6%. For the same molecule, the “Absolute sUA concentration” value [7] was 4.5 mg/dL and 4.3 mg/dL and 6.2 mg/dL and 3.2 mg/dL and 2.8 mg/dL and 3.1 mg/dL, the “% sUA reduction (from baseline)” value [8] was −46.2% and −43.4% and −40.5% and −43.5% and −44.1% and −41.1% and the “Absolute sUA concentration” value [8] was 4.2 mg/dL and 4.3 mg/dL and 4.4 mg/dL and 3.5 mg/dL and 3.3 mg/dL (2×). For the same molecule, the “% sUA reduction (from baseline)” value [9] was −52.6% and −44.7% and −44.6% and −43.5% and −52.5% and −46.4% and the “Absolute sUA concentration” value [9] was 3.7 mg/dL and 4.2 mg/dL and 4.1 mg/dL and 3.5 mg/dL and 2.8 mg/dL and 3.0 mg/dL.
